The supplement of paper PMC10077471
Over roughly 1,900 compounds, “excess over highest single agent (ExcessHSA) synergy score, 6x6 matrix” has its median near -83; the lowest 2% begin near -370. Some of the results follow.

Tested on: NCI-H446
Test: excess over highest single agent (ExcessHSA) synergy score, 6x6 matrix; higher = less synergy (more negative = stronger synergy)
Settings: 72 h; CellTiter-Glo viability

Row | Compound | excess over highest single agent
1 | Cc1ccc2nc(NC(=O)CSc3nc4c(c(=O)n3-c3ccccc3)SCC4)sc2c1 + Cc1sc2c(c1C)C(c1ccc(Cl)cc1)=N[C@@H](CC(=O)OC(C)(C)C)c1nnc(C)n1-2 [NCGC00250412-19] | 84.8
2 | C#C[C@]1(O)CC[C@H]2[C@@H]3CCC4=CC(=O)CC[C@@H]4[C@H]3CC[C@@]21CC + Cc1sc2c(c1C)C(c1ccc(Cl)cc1)=N[C@@H](CC(=O)OC(C)(C)C)c1nnc(C)n1-2 [NCGC00250412-19] | 85.1
3 | C=C1c2cccc(O)c2C(O)=C2C(=O)[C@@]3(O)C(O)=C(C(N)=O)C(=O)[C@@H](N(C)C)[C@@H]3[C@@H](O)[C@H]12 + Cc1sc2c(c1C)C(c1ccc(Cl)cc1)=N[C@@H](CC(=O)OC(C)(C)C)c1nnc(C)n1-2 [NCGC00250412-19] | 5.13
4 | Cc1cc2c(C(C)C)c(O)c(O)c(C=O)c2c(O)c1-c1c(C)cc2c(C(C)C)c(O)c(O)c(C=O)c2c1O + Cc1sc2c(c1C)C(c1ccc(Cl)cc1)=N[C@@H](CC(=O)OC(C)(C)C)c1nnc(C)n1-2 [NCGC00250412-19] | -203
5 | Cn1c(=O)c(Oc2ccc(F)cc2F)cc2cnc(NC3CCOCC3)nc21 + Cc1sc2c(c1C)C(c1ccc(Cl)cc1)=N[C@@H](CC(=O)OC(C)(C)C)c1nnc(C)n1-2 [NCGC00250412-19] | -79.8
6 | C[C@@H]1COC(Nc2ccc3ncnc(Nc4ccc(OCc5nccs5)c(Cl)c4)c3c2)=N1 + Cc1sc2c(c1C)C(c1ccc(Cl)cc1)=N[C@@H](CC(=O)OC(C)(C)C)c1nnc(C)n1-2 [NCGC00250412-19] | -154
7 | CCC(=O)O[C@]1(C(=O)CO)CC[C@H]2[C@@H]3CCC4=CC(=O)CC[C@]4(C)[C@H]3CC[C@@]21C + Cc1sc2c(c1C)C(c1ccc(Cl)cc1)=N[C@@H](CC(=O)OC(C)(C)C)c1nnc(C)n1-2 [NCGC00250412-19] | -194
8 | O=C(/C=C/c1c(C(=O)O)[nH]c2cc(Cl)cc(Cl)c12)Nc1ccccc1 + Cc1sc2c(c1C)C(c1ccc(Cl)cc1)=N[C@@H](CC(=O)OC(C)(C)C)c1nnc(C)n1-2 [NCGC00250412-19] | -30.8
9 | N[C@H]1CC[C@H](Nc2nc(Nc3ccc(C(=O)N4CCCCC4)cc3)c3ncn(-c4cccc(F)c4)c3n2)CC1 + Cc1sc2c(c1C)C(c1ccc(Cl)cc1)=N[C@@H](CC(=O)OC(C)(C)C)c1nnc(C)n1-2 [NCGC00250412-19] | -89.1
10 | C#CCN(C)[C@H](C)Cc1ccccc1 + Cc1sc2c(c1C)C(c1ccc(Cl)cc1)=N[C@@H](CC(=O)OC(C)(C)C)c1nnc(C)n1-2 [NCGC00250412-19] | -30.8
